Results as given in paper PMC3579733.
These are yes or no findings as the source states them, for the method shown. Binding seen in cells or lysates may run through a third protein. Here binding means that the protein was enriched with, or labelled near, the bait; the list need not be complete. For some assays here: A no says only that the protein was not detected with the bait. One block for each molecule: values may come before it.

Tests used:
Assay in all cases: affinity purification with mass spectrometry; one-step and two-step bait fishing taken together (final data set; both methods applied to all baits); the place does not tell which of the two gave the result
[1] = target: T1, Htr18 (Halobacterium salinarum R1 (DSM 671), endogenous) (UniProt B0R474)
T1 sequence: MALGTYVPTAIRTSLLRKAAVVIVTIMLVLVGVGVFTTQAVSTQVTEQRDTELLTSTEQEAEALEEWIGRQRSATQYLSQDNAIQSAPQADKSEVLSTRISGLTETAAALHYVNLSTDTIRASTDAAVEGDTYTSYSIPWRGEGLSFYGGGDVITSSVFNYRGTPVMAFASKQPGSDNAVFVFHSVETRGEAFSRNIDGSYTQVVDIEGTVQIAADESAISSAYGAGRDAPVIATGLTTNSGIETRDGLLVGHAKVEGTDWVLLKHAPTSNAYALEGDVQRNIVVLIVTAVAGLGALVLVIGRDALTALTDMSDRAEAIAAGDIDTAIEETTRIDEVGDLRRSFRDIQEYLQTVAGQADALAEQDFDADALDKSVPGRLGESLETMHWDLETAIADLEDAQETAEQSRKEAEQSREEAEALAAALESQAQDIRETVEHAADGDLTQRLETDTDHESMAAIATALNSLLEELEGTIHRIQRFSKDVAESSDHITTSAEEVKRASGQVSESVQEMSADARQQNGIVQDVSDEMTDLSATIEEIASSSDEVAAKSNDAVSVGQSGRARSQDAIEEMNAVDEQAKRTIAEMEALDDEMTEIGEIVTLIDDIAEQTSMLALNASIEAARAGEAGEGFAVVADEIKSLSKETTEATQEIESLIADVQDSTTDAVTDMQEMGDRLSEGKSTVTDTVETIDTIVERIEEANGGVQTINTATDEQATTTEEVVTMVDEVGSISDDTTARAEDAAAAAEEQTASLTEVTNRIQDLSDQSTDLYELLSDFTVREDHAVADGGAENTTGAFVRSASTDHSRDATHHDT

[2] = target: T2, Htr6 (Halobacterium salinarum R1 (DSM 671), endogenous) (UniProt B0R461)
T2 sequence: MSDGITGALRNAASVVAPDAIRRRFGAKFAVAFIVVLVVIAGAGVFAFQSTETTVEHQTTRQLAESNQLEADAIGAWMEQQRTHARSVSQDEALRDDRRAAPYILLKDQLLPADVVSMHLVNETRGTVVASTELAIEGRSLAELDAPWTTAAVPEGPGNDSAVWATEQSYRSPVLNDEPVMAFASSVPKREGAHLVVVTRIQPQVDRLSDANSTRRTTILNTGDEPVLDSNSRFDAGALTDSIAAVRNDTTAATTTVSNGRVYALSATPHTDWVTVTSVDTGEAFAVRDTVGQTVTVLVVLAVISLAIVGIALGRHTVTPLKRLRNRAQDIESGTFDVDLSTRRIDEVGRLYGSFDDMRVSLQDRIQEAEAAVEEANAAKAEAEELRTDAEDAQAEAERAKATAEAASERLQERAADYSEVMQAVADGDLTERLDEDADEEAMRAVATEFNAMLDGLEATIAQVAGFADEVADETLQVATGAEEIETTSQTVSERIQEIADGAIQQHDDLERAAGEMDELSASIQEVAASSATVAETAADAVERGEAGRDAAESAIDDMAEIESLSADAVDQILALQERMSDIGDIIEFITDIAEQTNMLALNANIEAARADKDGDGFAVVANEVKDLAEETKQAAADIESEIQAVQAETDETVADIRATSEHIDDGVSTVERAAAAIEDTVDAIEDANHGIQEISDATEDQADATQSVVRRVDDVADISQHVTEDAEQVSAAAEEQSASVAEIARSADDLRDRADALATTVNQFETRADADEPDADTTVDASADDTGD

[3] = target: T3, HtrII (Halobacterium salinarum R1 (DSM 671), endogenous) (UniProt B0R6B1)
T3 sequence: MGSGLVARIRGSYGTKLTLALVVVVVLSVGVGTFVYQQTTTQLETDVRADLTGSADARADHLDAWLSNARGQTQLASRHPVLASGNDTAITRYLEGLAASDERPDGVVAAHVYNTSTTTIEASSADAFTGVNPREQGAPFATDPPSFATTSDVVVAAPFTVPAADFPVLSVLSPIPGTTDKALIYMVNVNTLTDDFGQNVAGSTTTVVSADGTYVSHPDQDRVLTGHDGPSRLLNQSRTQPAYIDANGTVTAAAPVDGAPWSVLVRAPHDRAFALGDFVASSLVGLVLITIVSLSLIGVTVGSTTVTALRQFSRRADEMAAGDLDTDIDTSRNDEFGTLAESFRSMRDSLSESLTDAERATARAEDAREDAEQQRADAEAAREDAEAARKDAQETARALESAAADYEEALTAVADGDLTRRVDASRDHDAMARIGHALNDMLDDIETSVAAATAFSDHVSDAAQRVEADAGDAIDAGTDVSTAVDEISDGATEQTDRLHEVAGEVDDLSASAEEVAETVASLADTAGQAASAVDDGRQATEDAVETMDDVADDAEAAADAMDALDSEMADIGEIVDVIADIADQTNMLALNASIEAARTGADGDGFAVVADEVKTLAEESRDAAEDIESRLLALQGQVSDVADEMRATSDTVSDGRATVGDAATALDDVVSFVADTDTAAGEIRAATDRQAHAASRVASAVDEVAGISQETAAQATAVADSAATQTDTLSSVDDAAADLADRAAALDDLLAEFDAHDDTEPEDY

[4] = target: OE4643R (Halobacterium salinarum R1 (DSM 671))
[5] = target: T4, BasT (Halobacterium salinarum R1 (DSM 671), endogenous) (UniProt B0R6I4)
T4 sequence: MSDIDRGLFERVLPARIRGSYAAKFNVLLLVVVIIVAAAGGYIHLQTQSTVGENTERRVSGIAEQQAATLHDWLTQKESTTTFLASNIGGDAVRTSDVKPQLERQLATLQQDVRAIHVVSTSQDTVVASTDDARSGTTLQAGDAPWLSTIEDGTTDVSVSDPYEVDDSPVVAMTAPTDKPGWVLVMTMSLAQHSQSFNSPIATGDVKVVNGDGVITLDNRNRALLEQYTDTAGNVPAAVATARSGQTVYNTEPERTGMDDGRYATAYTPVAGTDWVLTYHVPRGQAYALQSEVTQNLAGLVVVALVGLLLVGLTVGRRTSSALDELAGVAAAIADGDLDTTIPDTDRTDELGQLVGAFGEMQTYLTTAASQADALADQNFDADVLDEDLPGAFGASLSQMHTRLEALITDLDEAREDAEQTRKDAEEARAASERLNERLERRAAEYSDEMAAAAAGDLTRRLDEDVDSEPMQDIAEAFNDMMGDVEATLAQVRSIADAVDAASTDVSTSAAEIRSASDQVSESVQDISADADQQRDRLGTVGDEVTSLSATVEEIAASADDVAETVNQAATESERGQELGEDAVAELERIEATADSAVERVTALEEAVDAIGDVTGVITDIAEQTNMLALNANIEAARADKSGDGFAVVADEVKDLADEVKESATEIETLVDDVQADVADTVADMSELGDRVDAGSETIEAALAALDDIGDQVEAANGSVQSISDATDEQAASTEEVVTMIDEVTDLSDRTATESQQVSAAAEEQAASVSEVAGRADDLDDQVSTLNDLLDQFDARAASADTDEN

[6] = target: T5, CosT (Halobacterium salinarum R1 (DSM 671), endogenous) (UniProt B0R6A7)
T5 sequence: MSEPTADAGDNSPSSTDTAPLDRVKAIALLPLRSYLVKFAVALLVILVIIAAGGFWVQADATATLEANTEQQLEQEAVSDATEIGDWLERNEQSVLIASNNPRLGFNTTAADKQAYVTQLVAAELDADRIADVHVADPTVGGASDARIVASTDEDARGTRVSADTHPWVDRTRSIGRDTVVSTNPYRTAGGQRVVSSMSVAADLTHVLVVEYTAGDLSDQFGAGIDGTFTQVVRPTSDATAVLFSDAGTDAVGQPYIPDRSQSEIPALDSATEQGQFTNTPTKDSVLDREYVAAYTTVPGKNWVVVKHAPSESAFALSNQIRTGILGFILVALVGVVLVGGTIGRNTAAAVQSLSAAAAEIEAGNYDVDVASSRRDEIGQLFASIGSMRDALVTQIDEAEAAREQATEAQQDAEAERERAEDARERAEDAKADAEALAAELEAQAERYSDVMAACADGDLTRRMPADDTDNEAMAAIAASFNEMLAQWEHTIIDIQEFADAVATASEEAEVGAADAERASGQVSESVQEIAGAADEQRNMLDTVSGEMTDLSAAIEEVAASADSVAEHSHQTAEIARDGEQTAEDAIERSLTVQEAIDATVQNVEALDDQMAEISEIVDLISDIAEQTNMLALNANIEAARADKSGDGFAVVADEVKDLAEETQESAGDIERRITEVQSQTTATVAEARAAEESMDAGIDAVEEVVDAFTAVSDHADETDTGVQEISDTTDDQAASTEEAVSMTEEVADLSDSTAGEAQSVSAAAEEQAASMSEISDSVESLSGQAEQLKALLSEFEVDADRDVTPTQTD

binding [1]: binds
Molecule: OE2196F

binding [2]: binds
Molecule: OE2170R

binding [3]: binds
binding [4]: no binding
B1: sensory rhodopsin II (receptor, UniProt P71411 1-237)
chain: MALTTWFWVGAVGMLAGTVLPIRDCIRHPSHRRYDLVLAGITGLAAIAYTTMGLGITATTVGDRTVYLARYIDWLVTTPLIVLYLAMLARPGHRTSAWLLAADVFVIAAGIAAALTTGVQRWLFFAVGAAGYAALLYGLLGTLPRALGDDPRVRSLFVTLRNITVVLWTLYPVVWLLSPAGIGILQTEMYTIVVVYLDFISKVAFVAFAVLGADAVSRLVAADAAAPATAEPTPDGD

binding [5]: binds
binding [4]: no binding
B2: BasB (protein, UniProt B0R6I5 32-413)
chain: QPVTVGSLLPLSGPGSLGALAADHQRAIDTAVEHANRGGGINGRDVVHVSKDTEADPSVAADRYATLAADESPLAIVGPVLSGVTTALTEQAAADAQLLVSPSTTAPAIATAGRSDGQKFVARTCPNDSQQAAVMAKIVDDDMYAAADTATILYVDNAFGAALADVLADRLGADLLASVPYQGGTDTPGGPVDDALAPDPDAVAFIGSPGSSSGVIDELVGREYGGEIALSSALASASSPPSWNGAYTATVNSASTVGTKRLRRALSDATPLQPYTENAYDAAALALLAASYSGDPTPRAVAGALQSVSGGVGHSITVGDFGRATDLIDAGRELNYNGATGNVDLTAALEPVTGYLIQQLTDAGIETRELLKSGYFTDGGDA

binding [6]: binds
binding [4]: no binding
B3: CosB (protein, UniProt B0R6A8 30-334)
chain: GCTTITGGGDTTSTGGGDSGSSSIVVGSKGYGEQVTLGYVAYELLANTTNATLVDETGFGGNAAISEAYRTGNVHAYYDYMGSLWSSHPPKHDSADFDTPDAQYDALKSEMESEHPIRILDRADWQNTWAVFVAERAVEGTGIQSISDLAAHVNSRNYDIRPAFGDGFRSRSDGLDALLDYYEFDPERVTAWASEREFLETASAQAAGTAVDEGYADLGVGYSTSAWLTDVDSVRVLDDDRNFWPFFHPVGVVHEDVATDAVVAALNTMPDAIPDAETMQALNSRAAASGNQQAAADHLQNNDFI
